Reference: PMC5516760
These are yes or no findings as the source states them, for the method shown. Binding seen in cells or lysates may run through a third protein. Some results given as binding are weak or reduced against the parent protein; the word gives no strength.

Chains of the proteins cited; added tags and fusions are not shown. Residues count along the entry.
UniProt O35964: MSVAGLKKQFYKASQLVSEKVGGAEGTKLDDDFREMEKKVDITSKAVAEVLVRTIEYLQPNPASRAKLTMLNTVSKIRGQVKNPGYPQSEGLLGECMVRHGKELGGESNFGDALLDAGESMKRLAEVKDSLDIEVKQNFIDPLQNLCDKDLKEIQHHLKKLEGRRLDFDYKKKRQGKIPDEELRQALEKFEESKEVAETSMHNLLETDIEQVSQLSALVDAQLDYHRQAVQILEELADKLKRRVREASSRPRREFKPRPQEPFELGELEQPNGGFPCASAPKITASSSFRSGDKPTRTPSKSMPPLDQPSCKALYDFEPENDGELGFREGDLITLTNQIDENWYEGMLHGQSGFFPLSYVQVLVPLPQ
UniProt P19490, residues 19-907: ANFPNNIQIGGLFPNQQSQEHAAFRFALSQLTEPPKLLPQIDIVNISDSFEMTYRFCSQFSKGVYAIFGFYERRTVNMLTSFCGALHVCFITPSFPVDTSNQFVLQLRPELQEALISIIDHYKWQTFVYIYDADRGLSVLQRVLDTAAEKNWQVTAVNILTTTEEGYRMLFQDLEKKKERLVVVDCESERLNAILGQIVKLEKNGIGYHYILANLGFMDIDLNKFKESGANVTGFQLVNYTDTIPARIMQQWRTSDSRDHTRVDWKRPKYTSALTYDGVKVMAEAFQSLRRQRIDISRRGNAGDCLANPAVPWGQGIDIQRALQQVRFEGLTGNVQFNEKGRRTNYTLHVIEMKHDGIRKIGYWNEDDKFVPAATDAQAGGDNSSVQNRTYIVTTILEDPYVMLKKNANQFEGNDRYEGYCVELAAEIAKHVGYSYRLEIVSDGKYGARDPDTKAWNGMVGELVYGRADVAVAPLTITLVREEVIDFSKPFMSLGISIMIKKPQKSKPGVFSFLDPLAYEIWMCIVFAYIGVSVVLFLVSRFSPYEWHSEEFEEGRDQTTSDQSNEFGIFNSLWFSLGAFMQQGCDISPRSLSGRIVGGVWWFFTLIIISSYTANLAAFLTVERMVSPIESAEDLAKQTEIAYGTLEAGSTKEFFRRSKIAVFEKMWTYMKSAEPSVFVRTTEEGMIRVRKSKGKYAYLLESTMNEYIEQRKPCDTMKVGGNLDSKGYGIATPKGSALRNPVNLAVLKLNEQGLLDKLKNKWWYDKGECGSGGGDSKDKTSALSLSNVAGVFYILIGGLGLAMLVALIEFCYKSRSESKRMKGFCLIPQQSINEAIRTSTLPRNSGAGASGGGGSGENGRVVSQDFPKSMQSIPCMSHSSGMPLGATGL
UniProt P19491, residues 22-883: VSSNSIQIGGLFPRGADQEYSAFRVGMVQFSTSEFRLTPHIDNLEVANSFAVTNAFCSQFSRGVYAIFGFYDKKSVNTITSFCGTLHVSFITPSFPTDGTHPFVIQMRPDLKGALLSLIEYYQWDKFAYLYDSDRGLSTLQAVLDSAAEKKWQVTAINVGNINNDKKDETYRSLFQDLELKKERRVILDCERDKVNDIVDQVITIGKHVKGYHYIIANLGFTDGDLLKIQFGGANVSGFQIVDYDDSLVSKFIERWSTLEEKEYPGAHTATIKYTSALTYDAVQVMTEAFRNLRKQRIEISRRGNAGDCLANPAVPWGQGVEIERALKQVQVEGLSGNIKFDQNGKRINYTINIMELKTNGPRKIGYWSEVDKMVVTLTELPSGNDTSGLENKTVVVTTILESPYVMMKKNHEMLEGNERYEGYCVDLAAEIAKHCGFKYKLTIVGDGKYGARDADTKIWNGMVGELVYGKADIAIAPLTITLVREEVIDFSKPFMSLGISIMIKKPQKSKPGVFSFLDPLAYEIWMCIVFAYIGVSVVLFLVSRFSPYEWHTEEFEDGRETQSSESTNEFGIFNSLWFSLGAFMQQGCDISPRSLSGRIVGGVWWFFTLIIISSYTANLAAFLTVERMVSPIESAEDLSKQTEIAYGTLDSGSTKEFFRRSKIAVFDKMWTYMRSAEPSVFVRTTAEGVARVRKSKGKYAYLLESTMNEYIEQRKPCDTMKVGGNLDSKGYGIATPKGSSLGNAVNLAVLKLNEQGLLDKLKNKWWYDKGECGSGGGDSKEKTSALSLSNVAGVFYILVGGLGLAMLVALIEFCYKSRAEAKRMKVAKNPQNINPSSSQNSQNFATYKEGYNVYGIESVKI

Key:
[1] = target: endophilin2, endogenous (rat (endogenous in Sprague Dawley rat brain)) (UniProt O35964); assay: co-IP; lysates of 1-month-old SD rat brain precipitated with endophilin2 antibody (normal IgG as control), Western blot with GluA1 antibody
[2] = target: GST-endophilin2 (UniProt O35964); assay: pull-down; about 5 μg GST-fused protein on glutathione agarose beads incubated with 300 μg 1-month-old SD rat brain protein for 8 h at 4°C; 100 mM NaCl, 20 mM Tris HCl, 5% glycerol, pH 7.0, 1% Triton X-100, protease inhibitors; Western blot with anti-GluA1 and anti-GluA2; only the target purified

Row | binding [1] | binding [2] | Substance
1 | binds | binds | GluA1 (AMPA receptor subunit), endogenous (from UniProt P19490 19-907)
2 | – | no binding | GluA2 (AMPA receptor subunit), endogenous (from UniProt P19491 22-883)
